# Among all 360,000 compounds or so, about 9,100 (2.5%) were called active. The inconclusive results got no clear call from the source; some entries with a clear call stand among them for comparison. Rule as the data show it: active = max response below about -50%; inconclusive = no clear call, values can overlap the other calls; inactive = above that.
# Protein sequences, listed by entry. Tags and fused reporters are not part of them.
# UniProt P35462, whole entry, looked up: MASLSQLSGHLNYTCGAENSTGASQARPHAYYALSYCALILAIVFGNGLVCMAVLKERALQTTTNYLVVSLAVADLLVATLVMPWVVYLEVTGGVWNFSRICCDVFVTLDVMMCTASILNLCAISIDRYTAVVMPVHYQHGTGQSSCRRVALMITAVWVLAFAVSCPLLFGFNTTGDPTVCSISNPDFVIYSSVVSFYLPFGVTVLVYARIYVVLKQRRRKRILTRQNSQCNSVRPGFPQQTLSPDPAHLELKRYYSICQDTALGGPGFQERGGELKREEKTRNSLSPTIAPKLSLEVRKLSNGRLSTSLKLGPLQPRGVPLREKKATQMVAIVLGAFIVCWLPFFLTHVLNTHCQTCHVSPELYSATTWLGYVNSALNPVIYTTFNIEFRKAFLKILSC
# Biological target: D(3) dopamine receptor (Homo sapiens) (UniProt P35462)
# Experiment: qHTS of D3 Dopamine Receptor Antagonist: qHTS
# Details: D3R cells, DiscoveRx beta-arrestin luminescence, antagonist mode; hits give low values
# How it was run: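 Cells plated overnight at 1500 cells/well, then exposed to library compounds with dopamine controls for 90 minutes at 37 degrees C. DiscoveRx reagent added for 30–60 minutes at room temperature; luminescence read, quantitative HTS format.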
# % is scaled to controls: 0 for no effect and ±100 for the full control effect.
row,SMILES,"max response, negative = inhibition"
1,C/C(=N\NC(=S)NCc1ccccc1)c1cccs1,inconclusive: -41.2%
2,Cc1ccc(-n2c(C)cc(C=C3C(=O)CC(C)(C)CC3=O)c2C)cc1,inconclusive: -32.1%
3,COCC(=O)N[C@@H]1c2ccccc2CC[C@@H]1OCc1ccccc1,inconclusive: -42.6%
4,Cc1nn(-c2ccccc2)c(/N=C/c2ccccc2O)c1-c1ccccc1,inconclusive: -38.5%
5,CCOc1ccc(Nc2cc(=O)oc3ccccc23)cc1,inactive: -14.3%
6,CCCCCCCCN1C(=O)[C@H](CC(=O)NCc2ccc(OC)c(OC)c2)C[C@@]2(C(=O)OC)CC(C)(C)CC=C12,inactive: 1.49%
7,Cc1cccc(-c2cc3nc(C)cc(NCCCN(C)C)n3n2)c1,inconclusive: -32.8%
8,O=C(NCC1CCOCC1)c1ccc2nc(Cc3cccc(Cl)c3)oc2c1,inactive: 1.94%
9,C/C(=N\NC(=S)NCc1ccccc1)c1cccc(Br)c1,inactive: 9.46%
10,CCOc1ccc(-c2nnc(-c3ccccc3)o2)cc1,inconclusive: -30.3%
11,O=C(Nc1cccc2ncccc12)c1cccnc1,inconclusive: -32.7%
12,CN1C(=O)/C(=N\OC(=O)c2cccc3ccccc23)c2ccccc21,inconclusive: -42.1%
13,N#C/C(=N\Nc1ccc(Cl)cc1)C(=N)N1CCCCCC1,inconclusive: -30.2%
14,Cc1ccc(-c2csc(C(C)(O)c3ccc(F)c(F)c3)n2)cc1C (stereo unspecified),active: -69.3%
15,Cc1ccc(OC2=NS(=O)(=O)c3ccccc32)cc1,inconclusive: -31.8%
16,N#Cc1ccccc1OCC(=O)OCC(=O)Nc1ccc2c(c1)OCO2,inactive: -18.3%
17,COCCN(C(=O)CSc1nnc(Nc2ccccc2F)s1)c1c(N)n(Cc2ccccc2)c(=O)[nH]c1=O,inconclusive: -33.2%
18,Cc1nn(CC(=O)Nc2ccc3c(c2)nc2n3CCN(C3CCCCC3)C2)c(=O)c2ccccc12,inactive: -0.867%
19,CCOc1ccc(/C=N/OCC(=O)Nc2ccc(OCc3ccccc3)cc2)cc1OC,inactive: -26.4%
20,OCCN1CCN(CC/C=C2/c3ccccc3CSc3ccccc32)CC1,active: -105%
21,CCOc1ccc(S(=O)(=O)N2CCN(c3ccc(C)cc3C)CC2)cc1,inconclusive: -47.7%
22,CCN1CCN(C2=C(Cl)C(=O)N(Cc3ccccc3)C2=O)CC1,active: -50.5%
23,Cc1nnc(SC(C)C(=O)NC2CCCCC2C)s1 (stereo unspecified),inconclusive: -36.3%

row,SMILES,"max response, negative = inhibition"
1,Cc1[nH]c2ccccc2c1CN1CCC(Cc2ccccc2)CC1,inconclusive: -43.3%
2,O=C(/C=C/c1ccc2c(c1)OCO2)NCCSCc1c(Cl)cccc1Cl,inconclusive: -35.7%
3,COc1cccc(CN(CC(=O)NC2CCCC2)C(=O)CCC(=O)Nc2cc(C)on2)c1,inactive: 12.2%
4,O=C(NCCCOC(=O)c1ccccc1)c1ccccc1,inactive: 8.51%
5,CN(C)c1ccc(C=c2c3ccccc3n3c2cc(-c2ccccc2)[n+]3C)cc1,inconclusive: -30.2%
6,CS(=O)(=O)NCCNc1ncc(C(F)(F)F)cc1Cl,inactive: -4.92%
7,Cc1ccc(NC(=O)CCN2CCC(Cc3ccccc3)CC2)cc1,active: -53.2%
8,CCc1noc(C)c1C(=O)N1CCN(c2cccc(C)c2C)CC1,inconclusive: -38.5%
9,CC(=O)c1c(C)[nH]c(C(=O)NCCC2=CCCCC2)c1C,active: -56.6%
10,COc1ccccc1C(=O)NC1CC2CCC(C1)N2Cc1ccccc1 (stereo unspecified),active: -95.2%
11,O=C(NCCN1CCC(n2c(=O)[nH]c3ccccc32)CC1)c1c(F)cccc1F,active: -92.4%
12,CC1(Cc2ccc(Cl)c(Cl)c2)C(=O)Nc2c(Cl)ccc(Cl)c21 (stereo unspecified),inconclusive: -33.5%
13,COc1ccc(N/C(C)=C/C(=O)c2ccccc2)cc1,inconclusive: -40.3%
14,Cc1ccc(CCC2C3=C(CCCC3=O)OC3=C2C(=O)CCC3)cc1,inconclusive: -42.6%
15,CC(C)OC(=O)c1cccnc1N1CCN(c2ccc(F)cc2)CC1,inconclusive: -34.3%
16,O=C(COc1ccc(Br)cc1)N/N=C1\SCC(=O)N1c1ccc(F)cc1,inconclusive: -33%
17,O=C(CCNS(=O)(=O)c1ccc(Br)s1)Nc1ccc(Cl)cc1,active: -52.2%
18,Cc1c(C(=O)N2CCCC2)c(S(=O)(=O)Nc2cccc(Br)c2)c(C)n1C,inactive: 1.01%
19,CC(C)N1C(=O)c2ccccc2NC(=O)C1C(=O)NCc1cccs1 (stereo unspecified),inactive: -19.3%
20,CCCCCCCCC[n+]1cccc2c3ccccc3ccc21,inactive: -26.6%
21,O=C(NC1CC2CCC(C1)N2Cc1ccccc1)c1ccccc1Cl (stereo unspecified),active: -88.9%
22,COC(=O)c1ccccc1NC(=O)CN1CCN(C(=O)c2ccco2)CC1,inactive: 14%
23,CCN(CC)c1ccc(NC(=O)Cn2nnc(-c3cccc(OC)c3OC)n2)c(C)c1,inactive: 15.6%

row,SMILES,"max response, negative = inhibition"
1,O=C1S/C(=C/c2ccc(N3CCOCC3)o2)C(=O)N1Cc1c(F)cccc1Cl,inconclusive: -43.7%
2,CSc1ccccc1C(=O)C1CCCN(Cc2cnn(-c3ccccc3)c2)C1 (stereo unspecified),active: -76.4%
3,CCOc1cc(C(=O)NC(C)c2ccncc2)cc(OCC)c1OCC (stereo unspecified),inconclusive: -42.8%
4,COc1ccc(NC(=O)COC(=O)CNC(=O)C2CCCCC2)cc1OC,inconclusive: -41.4%
5,CC(C)C[C@H]1CN([C@@H](Cc2ccc(O)cc2)CN2CCC[C@@H]2CN2C(=S)NC[C@@H]2Cc2ccccc2)C(=S)N1CC1CCCCC1,inconclusive: -46.7%
6,Cc1ccc(OCCN2CCN(C)CC2)c([N+](=O)[O-])c1,active: -53.1%
7,O=C(COc1ccc(F)cc1)N1CCC(Cc2ccccc2)CC1,inactive: -1.92%
8,Cc1cccc(C)c1-n1nnnc1C(c1ccnc2ccccc12)N1CCCC1 (stereo unspecified),active: -56.2%
9,O=C1NC(c2ccccc2)(C(F)(F)F)SC2=NCCCN12 (stereo unspecified),inconclusive: -34%
10,COCCNC(=O)CCc1c(C)nc2c(c(C)nn2-c2ccc(C)cc2)c1C,inactive: 3.51%
11,OC(CN1CCN(c2cccc(Cl)c2)CC1)c1ccccc1 (stereo unspecified),inconclusive: -34%
12,COc1ccccc1CNCCS(=O)(=O)NCc1ccccc1,inconclusive: -45.9%
13,CCOC(=O)c1c(-c2ccc(C)cc2)cn2ccccc12,inactive: -16%
14,CCSc1ncc(Cl)c(C(=O)N(Cc2ccc(N(C)C)cc2)C2CCS(=O)(=O)C2)n1 (stereo unspecified),inconclusive: -35.4%
15,COc1ccc(C(c2nnnn2-c2ccc(OC)cc2)N2CCN(C/C=C/c3ccccc3)CC2)cc1 (stereo unspecified),active: -89.2%
16,Nc1nc(SCC(=O)Nc2cccc(Oc3ccccc3)c2)n[nH]1,inconclusive: -31.9%
17,CC(C)C(=O)NNc1ccccc1,inconclusive: -41%
18,Nc1cc2c(cc1C(=O)c1ccccc1)OCCO2,active: -60.1%
19,COc1cc(OC)cc(C(=O)Nc2sc3c(c2C(N)=O)CCC3)c1,inactive: -19%
20,CN1CCCC(OC(=O)c2cc(Br)ccc2Cl)C1 (stereo unspecified),inconclusive: -34%
21,CN(C)CCCN(C(=O)CCOc1ccccc1)c1nc2c(F)cccc2s1,active: -98.8%
22,CCc1ccc(N(CC(=O)NC2CC2)S(=O)(=O)c2ccc(C)cc2)cc1,inactive: -9.53%
23,COC(=O)CC1(C(=O)OC)Nc2cc(Cl)c(Cl)cc2S(=O)(=O)N1O (stereo unspecified),inconclusive: -41.5%

# A section taken from the entries so far, as a working copy:
row,SMILES,"max response, negative = inhibition"
9,O=C1NC(c2ccccc2)(C(F)(F)F)SC2=NCCCN12 (stereo unspecified),inconclusive: -34%
10,COCCNC(=O)CCc1c(C)nc2c(c(C)nn2-c2ccc(C)cc2)c1C,inactive: 3.51%

# Next part.

row,SMILES,"max response, negative = inhibition"
1,Cc1ccc(NC(=O)c2cn(-c3cccc(C)n3)cn2)cc1,inconclusive: -31.1%
2,COc1ccc(-n2nnnc2SCc2nc3ccccc3s2)cc1,inconclusive: -45.5%
3,COc1ccc(-c2cnc(N)n2CC2CCCO2)cc1 (stereo unspecified),inconclusive: -43.9%
4,Cc1ccc(NS(=O)(=O)c2c(C)[nH]c(C)c2C(=O)N2CCCCC2)cc1Cl,inconclusive: -46.7%
5,Cc1cc(-c2c(C)[nH]n(-c3ccc(Cl)cc3)c2=O)n[nH]1,active: -59.8%
6,CCN1C(=O)/C(=C/C=C2/Sc3ccccc3N2CCO)SC1=S,inactive: -27.6%
7,O=C(c1ccccc1F)N1CCN(CC2CC3C=CC2C3)CC1 (stereo unspecified),inconclusive: -45.8%
8,O=C(O)c1ccccc1C(=O)Nc1ccc(Br)c(C(F)(F)F)c1,inactive: 3.42%
9,CCN(CC(=O)Nc1ccc(NC(C)=O)cc1)C(=O)/C=C/c1ccccc1,inconclusive: -43.7%
10,O=C(C=Cc1cccs1)c1cccs1,inactive: 24.1%
11,O=C(CCc1ccc(S(=O)(=O)N2CCOCC2)cc1)Nc1nc(COc2ccccc2)cs1,inactive: 17.3%
12,O=C(NCC(Cl)c1ccc2ccccc2c1)c1c(F)cccc1F (stereo unspecified),inconclusive: -35%
13,COc1ccccc1-n1c(C)nc2cc(C(=O)NCc3ccc4c(c3)OCO4)ccc21,active: -53.5%
14,O=C1NC(=Nc2ccccc2)S/C1=C\c1cccn1-c1ccccc1,active: -70.2%
15,COc1ccc(-n2c(SCCNCCO)nc3sc4c(c3c2=O)CCCC4)cc1,inconclusive: -43.4%
16,CC(C)(C)OC(=O)N(CC1CCNCC1)C(=O)c1[nH]c(C(F)(F)F)nc1-c1ccccc1,inactive: 9.98%
17,Cc1cc(C)cc(OCC(=O)OCC(=O)Nc2cc(S(=O)(=O)N3CCOCC3)ccc2Cl)c1,inconclusive: -38.1%
18,CCOC(=O)NC(=O)/C(N=Nc1cccc(C(F)(F)F)c1)=C(\C)O,inactive: 13.4%
19,COC(Cc1nnc(SC)n1-c1ccccc1)OC,inconclusive: -33.8%
20,Cc1occc1C(=O)NNC(=O)CN1C(=O)NC2(CCCCC2)C1=O,inactive: -15.8%
21,O=C(Nc1ccccc1C(=O)NC1CC1)c1ccc([N+](=O)[O-])o1,active: -62.6%
22,CCn1c(Cc2ccc(OC)cc2)nc2ccccc21,inconclusive: -41.9%

# Looked up by compound from the list above:
row,SMILES,"max response, negative = inhibition"
8,CCc1noc(C)c1C(=O)N1CCN(c2cccc(C)c2C)CC1,inconclusive: -38.5%
16,Nc1nc(SCC(=O)Nc2cccc(Oc3ccccc3)c2)n[nH]1,inconclusive: -31.9%
11,O=C(Nc1cccc2ncccc12)c1cccnc1,inconclusive: -32.7%
20,CN1CCCC(OC(=O)c2cc(Br)ccc2Cl)C1 (stereo unspecified),inconclusive: -34%
15,CC(C)OC(=O)c1cccnc1N1CCN(c2ccc(F)cc2)CC1,inconclusive: -34.3%

# — PubChem BioAssay AID652054 (National Center for Advancing Translational Sciences (NCATS), 2013)
